These results are taken from paper PMC11147762.

Protein sequences, listed by entry. Tags and fused reporters are not part of them.
UniProt Q9UJV9, whole entry R525H: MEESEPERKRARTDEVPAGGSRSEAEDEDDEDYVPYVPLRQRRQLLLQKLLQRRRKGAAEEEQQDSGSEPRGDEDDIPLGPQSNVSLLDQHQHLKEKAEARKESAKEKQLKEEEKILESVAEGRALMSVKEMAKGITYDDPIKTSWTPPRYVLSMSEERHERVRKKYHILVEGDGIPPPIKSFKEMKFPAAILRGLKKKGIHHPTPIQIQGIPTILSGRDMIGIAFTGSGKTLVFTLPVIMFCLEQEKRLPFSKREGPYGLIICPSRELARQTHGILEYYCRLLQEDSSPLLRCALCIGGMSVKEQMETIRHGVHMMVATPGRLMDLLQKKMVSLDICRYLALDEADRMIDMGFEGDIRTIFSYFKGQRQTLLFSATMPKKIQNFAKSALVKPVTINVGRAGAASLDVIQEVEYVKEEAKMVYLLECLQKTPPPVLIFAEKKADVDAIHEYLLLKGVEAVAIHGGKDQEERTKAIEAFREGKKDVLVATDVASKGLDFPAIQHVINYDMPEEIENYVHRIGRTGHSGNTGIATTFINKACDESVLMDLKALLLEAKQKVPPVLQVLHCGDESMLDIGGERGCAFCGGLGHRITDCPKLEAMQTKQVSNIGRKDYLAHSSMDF

This series deals with DDX41-R525H (Homo sapiens) (UniProt Q9UJV9). The series is described as follows: EMSA. The note with it: 0-1300 nM protein with 10 nM nucleic acid, recombinant protein, label: 5'-Cy5 on strand 1. In general terms: In EMSA bound probe runs differently from free probe, usually more slowly.

Construct, isoform or probe ends are uncertain for at least one entry. A weaker result is weaker than the reference pair of the same experiment. At least one verdict was read from the data and is not stated in words by the source.

Consider “GCCAGGGACGAGGTGAACCTGCAGGTGGGCAAAGCAGCTGGCACGACAGGTATGAATCGCGTGGTAGAATTCGGCAGCGTCATGCGACGGC (double strand) [Duplex (homoduplex)]”, for which the binding result is recorded as “binds more weakly”.
